Measurements reported in PubChem BioAssay AID504793 (Drosophila RNAi Screening Center, 2011)
Aim: 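Knock-downs allowing continued mitosis even though DNA is damaged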 (primary screen). System: Drosophila S2R+ cells. Reagent: long dsRNA against Drosophila genes, about 0.25 µg dsRNA per well. Duration: 4 days of dsRNA, then 4 hours of drug before read-out. Challenge: doxorubicin 0.5 µM for 4 hours to cause double-strand breaks, in cells also given a low, harmless dose of dsRNA against nbs to sensitise the assay. Read-out: 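Mitotic index as the number of phospho-histone H3-positive cells in each well following doxorubicin, given as raw counts without normalisation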. Reading the numbers: mitotic cells: higher = more cells in mitosis, weaker G2 arrest. Hit rule: 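Genes are called active only when high mitotic counts were reproduced with independent dsRNAs and mitosis was checked for delay without damage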. Meaning of the calls: active = confirmed in follow-up tests; inactive = not confirmed.
In all, the deposit lists about 23,000 reagents; below is a random part of those that have a named target and a result. Of all reagents, 62 (0.27%) were called active. 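Calls come from follow-up tests whose scores are not deposited, so confirmed genes may have low counts here; counts are not normalised per plate.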 Raw values vary from plate to plate and are shown uncorrected. Unmarked entries are inactive. Names joined by + are all predicted targets of the reagent.

gene knocked down | amplicon | mitotic cells, replicate 1
Lcp65Ag3 + Lcp65Ag2 + Lcp65Ag1 | DRSC11214 | 4
Lcp65Ag3 + Lcp65Ag2 + Lcp65Ag1 | DRSC11215 | 4
CG31103 | DRSC22324 | 8
atms | DRSC12310 | 3
atms | DRSC27502 | 5
waw + bbx | DRSC24894 | 11
simj | DRSC10942 | 2
simj | DRSC25345 | 3
CG17230 | DRSC15203 | 4
CG17230 | DRSC27268 | 9
Hpd | DRSC11670 | 6
Hpd | DRSC27639 | 6
CG32647 | DRSC19690 | 21
CG32647 | DRSC19878 | 7
Prosbeta5 | DRSC07517 | 151
Prosbeta5 | DRSC28939 | 77
CG3108 | DRSC18280 | 1
DIP-beta | DRSC20489 | 7
DIP-beta | DRSC20490 | 4
DIP-beta | DRSC20505 | 12
CG9284 (retired record) | DRSC03899 | 6
CG9284 (retired record) | DRSC04536 | 7
Or22b | DRSC00765 | 3
CG33287 | DRSC22929 | 12
CG12057 | DRSC17797 | 15
CG17778 | DRSC18504 | 8
koi | DRSC04980 | 9
CG33127 | DRSC00011 | 7
Nprl2 | DRSC20153 | 2
SdhD | DRSC14215 | 11
Tsp42Eo | DRSC06184 | 7
CtsL3 | DRSC12171 | 7
CtsL3 | DRSC27036 | 15
CG32225 | DRSC09657 | 7
CG32225 | DRSC26362 | 4
CG3916 | DRSC15520 | 2
CG3916 | DRSC26907 | 8
CG9400 | DRSC20182 | 9
Daao1 | DRSC06131 | 4
mus81 | DRSC18180 | 18
mus81 | DRSC18644 | 13
CG14797 | DRSC17955 | 12
CG13380 + CG4174 | DRSC09988 | 12
CG13380 + CG4174 | DRSC10406 | 6
CG14454 | DRSC11711 | 3
CG14454 | DRSC23866 | 4
eIF3c | DRSC06905 | 6
Chchd2 | DRSC19931 | 10
Chchd2 | DRSC29551 | 4
CG13023 | DRSC09903 | 3
ppk26 | DRSC10991 | 5
ppk26 | DRSC25876 | 6
Zasp67 | DRSC10169 | 5
Zasp67 | DRSC24457 | 6
CG7856 | DRSC04896 | 9
HINT1 | DRSC26502 | 8
CG31826 | DRSC03357 | 7
CG42586 + CG31775 | DRSC01413 | 9
Ttc19 | DRSC02474 | 7
msl-3 | DRSC11371 | 11
CG31806 | DRSC02787 | 7
CG31806 | DRSC29784 | 10
gpp | DRSC12515 | 5
gpp | DRSC28193 | 7
Cnx99A | DRSC25426 | 2
Pebp1 | DRSC15354 | 7
anne | DRSC17103 | 2
anne | DRSC29952 | 6
Spn42Db | DRSC05009 | 7
Ac76E | DRSC09642 | 3
Ac76E | DRSC09662 | 8
Ir20a | DRSC20506 | 4
Ttc7 | DRSC04836 | 3
zuc | DRSC02160 | 4
Mical | DRSC14349 | 11
Mical | DRSC14351 | 8
Mical | DRSC15365 | 4
Mical | DRSC15366 | 6
CG6220 | DRSC06969 | 8
CG11322 | DRSC02142 | 6
CG11322 | DRSC24585 | 6
CDase | DRSC14932 | 5
Droj2 | DRSC16450 | 14
Droj2 | DRSC28863 | 27
CG13653 | DRSC14653 | 6
CG43672 | DRSC19452 | 11
CG43672 | DRSC20108 | 6
CG14795 | DRSC18513 | 9
CG14795 | DRSC26338 | 6
grim | DRSC23169 | 7
CG33332 | DRSC15504 | 5
CG33332 | DRSC27661 | 17
rempA | DRSC00327 | 6
PICK1 | DRSC02936 | 7
Swt1 | DRSC20028 | 5
Cyp4d20 | DRSC08654 | 6
Cyp4d20 | DRSC25418 | 1
CG30398 | DRSC03891 | 9
CG8188 | DRSC20090 | 15
CG8188 | DRSC27721 | 4
SMC5 | DRSC11849 | 3
Uro | DRSC03469 | 7
HisRS | DRSC19986 | 10
CG31198 | DRSC15891 | 3
Ir92a | DRSC15111 | 4
CG30377 | DRSC06477 | 8
CG30377 | DRSC25708 | 9
Gar1 | DRSC04441 | 4
Gar1 | DRSC25331 | 3
Acp24A4 | DRSC22352 | 13
